From US20170348337A1 (priority 2014, published 2017)
HELM strings list residues between dots; [ac] is acetyl, [am] amide, other brackets name non-standard units.

Assay: general procedure: Fmoc solid-phase peptide synthesis; 2-chlorotrityl chloride resin; HBTU/HOBt/DIEA
Settings: whole synthesis, scale 0.073 mmol

Substance: PEPTIDE1{R.Q.I.K.I.W.F.Q.N.R.R.W}$$$$V2.0
- isolated mass: 78.3 mg
- isolated yield: 47%
